Measurements reported in patent publication US20140088056A1, “CARDIAC GLYCOSIDES ARE POTENT INHIBITORS OF INTERFERON-BETA GENE EXPRESSION” (priority 2010, published 2014).

Tested on: IFNβ promoter
Type: cell-based, human
Settings: chemical library screen

## CNC1CCc2cc(OC)c(OC)c(OC)c2-c2ccc(OC)c(=O)cc21 (stereo not shown) [Colcemid]
  Inhibition % @ 10 μM of virus induced IFNβ expression: 52.7%
